The text below walks through data of PMC9455228.

Protein sequences, listed by entry. Tags and fused reporters are not part of them.
UniProt P84025: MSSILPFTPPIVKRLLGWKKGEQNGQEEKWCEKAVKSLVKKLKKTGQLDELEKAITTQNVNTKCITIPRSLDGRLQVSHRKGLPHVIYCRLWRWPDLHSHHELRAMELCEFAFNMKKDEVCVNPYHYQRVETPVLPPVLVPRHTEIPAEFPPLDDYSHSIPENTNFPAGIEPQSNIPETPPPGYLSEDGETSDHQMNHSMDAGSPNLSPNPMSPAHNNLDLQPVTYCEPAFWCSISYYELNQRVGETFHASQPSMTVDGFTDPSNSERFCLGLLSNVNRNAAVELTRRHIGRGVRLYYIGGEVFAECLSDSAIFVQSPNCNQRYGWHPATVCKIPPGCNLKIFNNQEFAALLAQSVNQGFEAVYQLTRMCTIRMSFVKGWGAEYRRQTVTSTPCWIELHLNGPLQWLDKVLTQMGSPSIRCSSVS
UniProt P84022: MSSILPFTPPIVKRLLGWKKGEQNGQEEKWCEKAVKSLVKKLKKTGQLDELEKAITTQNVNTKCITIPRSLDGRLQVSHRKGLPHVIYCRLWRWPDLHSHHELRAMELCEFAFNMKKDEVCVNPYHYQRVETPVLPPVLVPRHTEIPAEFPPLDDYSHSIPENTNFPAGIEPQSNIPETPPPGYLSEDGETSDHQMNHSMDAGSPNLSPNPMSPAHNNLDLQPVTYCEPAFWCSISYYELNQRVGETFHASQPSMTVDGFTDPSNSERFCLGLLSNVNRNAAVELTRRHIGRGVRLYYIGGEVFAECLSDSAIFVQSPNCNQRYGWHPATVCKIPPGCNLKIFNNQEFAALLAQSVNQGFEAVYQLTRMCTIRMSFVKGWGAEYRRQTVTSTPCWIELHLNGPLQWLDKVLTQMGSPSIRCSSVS
UniProt P26447: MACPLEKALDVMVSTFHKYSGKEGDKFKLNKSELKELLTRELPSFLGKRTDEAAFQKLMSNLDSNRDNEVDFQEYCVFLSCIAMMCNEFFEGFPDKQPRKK
UniProt O70437: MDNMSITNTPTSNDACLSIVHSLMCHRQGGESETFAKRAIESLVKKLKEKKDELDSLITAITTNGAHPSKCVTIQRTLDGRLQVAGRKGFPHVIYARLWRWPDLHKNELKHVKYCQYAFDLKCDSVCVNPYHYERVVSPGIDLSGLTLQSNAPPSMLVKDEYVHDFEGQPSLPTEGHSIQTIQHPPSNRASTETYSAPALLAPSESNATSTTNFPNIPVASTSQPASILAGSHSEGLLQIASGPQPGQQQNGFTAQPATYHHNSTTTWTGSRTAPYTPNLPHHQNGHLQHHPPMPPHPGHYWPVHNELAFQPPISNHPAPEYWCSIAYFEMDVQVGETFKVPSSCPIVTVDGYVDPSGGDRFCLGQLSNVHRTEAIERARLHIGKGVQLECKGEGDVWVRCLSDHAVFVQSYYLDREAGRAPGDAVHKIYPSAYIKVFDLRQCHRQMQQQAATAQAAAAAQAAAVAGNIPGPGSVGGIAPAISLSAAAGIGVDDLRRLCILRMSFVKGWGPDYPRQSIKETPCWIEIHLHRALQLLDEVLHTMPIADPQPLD
UniProt P05942: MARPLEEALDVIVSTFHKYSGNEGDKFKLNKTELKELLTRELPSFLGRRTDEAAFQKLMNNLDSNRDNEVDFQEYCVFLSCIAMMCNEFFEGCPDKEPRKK

Assay [1] deals with endogenous Smad3 (NRK-49F cells) (rat (endogenous in NRK-49F)) (UniProt P84025). The assay can be described thus: co-IP; NRK-49F cells (CON sgRNA or S100A4 sgRNA; pEGFP or GFP-S100A4) treated with TGF-β1 (2 ng/mL) for 1 h; extracts precipitated with anti-Smad3 or IgG, blotted with anti-Smad4.
Assay [2] shares this target. The assay is described as follows: co-IP; non-transfected NRK-49F lysate (25 mM Tris-HCl pH 7.4, 150 mM NaCl, 1% NP-40, 5% glycerol); precipitated with anti-Smad3 overnight at 4 °C, rabbit normal IgG as control; blotted for S100A4.
Assay [3] has as its target FLAG-tagged Smad3 (UniProt P84022). The assay is described as follows: co-IP; HEK293T co-transfected with GFP-S100A4 and FLAG-Smad3, lysed 48 h after transfection in IP lysis buffer (25 mM Tris-HCl pH 7.4, 150 mM NaCl, 1% NP-40, 5% glycerol); precipitated with anti-Flag, blotted with anti-GFP.
Assay [4] concerns the target GFP-tagged S100A4 (UniProt P26447). The assay can be described thus: co-IP; reciprocal: HEK293T transfected with GFP-S100A4 and FLAG-Smad3; lysates precipitated with anti-GFP, blotted with the indicated antibodies.

These are yes or no findings as the source states them, for the method shown. In cells and extracts the contact can be indirect. Some binding calls cover weakened binding; strength is not graded here.

With “endogenous Smad4 (NRK-49F cells) (from UniProt O70437 1-552)”, in assay [1], the binding result is “binds”.
With “endogenous S100A4 (NRK-49F cells) (from UniProt P05942 1-101)”, the binding result in assay [2] is given as “binds”.
As to “GFP-tagged S100A4 (from UniProt P26447 1-101)”, the binding result in assay [3] is listed as “binds”.
Regarding “FLAG-tagged Smad3 (from UniProt P84022 1-425)”, the binding entry in assay [4] was “binds”.
